The subject of assay [1] is A. fumigatus ATCC 26430. The assay is described as follows: Colorimetric microplate drug susceptibility test (WST-8 coloring reagent, sucrose YN broth, NaOH sensitizing solution). Format: cell-based, Aspergillus Fumigatus. Particulars: Colorimetry (present invention); 24 hours culture at 35° C.; absorbance at 630 nm; AMPH: absorbance equal to or less than negative control, ITCZ: IC80. On the procedure: (§1) Aspergillus Fumigatus ATCC26430 was used.
The drug solutions so prepared were pipetted into a plate at 0.02 mL/well and dried to a solid under reduced pressure for 24 hours. A coloring reagent (containing 0.7 mmol/L WST-8, 0.0035 mmol/L 1-methoxy PMS, 0.5 mmol/L potassium ferricyanide, and 0.5 mmol/L of potassium ferrocyanide) was pipetted into each of the wells at 0.02 mL/well and they were again dried to a solid under reduced pressure for 24 hours.
6.7 g of YN Base (manufactured by Difco) and 20 g of sucrose were dissolved in about 900 mL of purified water, and the pH was adjusted to 7.0 with a 1N aqueous solution of sodium hydroxide. The solution was made up to 1000 mL with purified water and then filter sterilized using a 0.2 μm filter.
A tester strain was cultured using Sabouraud Dextrose Agar (manufactured by OXOID) at 35° C. for 7 days. 2 mL of sterile physiological saline containing 0.1% Tween 80 was added dropwise onto the culture medium so as to float spores. […] Dilution was carried out so that the absorbance at 530 nm was 0.09 to 0.11. […]
After 24 hours 0.02 mL of a 1.5 mol/L aqueous solution of sodium hydroxide was added to each well, and 5 minutes after the addition the absorbance at 630 nm was measured.
2. For ITCZ, the 80% inhibitory concentration (IC80) was determined.
Background: Tetrazolium dyes change colour on reduction, which living cells bring about.

Assay [2] relates to A. fumigatus ATCC 26430. The assay is described as follows: NCCLS M-38P turbidity method (0.2 mL micro broth dilution) antifungal susceptibility test. Particulars: repeated tests, determination time 46 to 50 hours. It counts as cell-based, Aspergillus Fumigatus. On the procedure:
as §1
A comparative example was carried out according to NCCLS M-38P (0.2 mL culture system micro broth dilution method).

For the molecule `C[C@@H]1[C@H](O)[C@@H](C)/C=C/C=C/C=C/C=C/C=C/C=C/C=C/[C@H](O[C@@H]2O[C@H](C)[C@@H](O)[C@H](N)[C@@H]2O)C[C@@H]2O[C@](O)(C[C@@H](O)C[C@@H](O)[C@H](O)CC[C@@H](O)C[C@@H](O)CC(=O)O[C@H]1C)C[C@H](O)[C@H]2C(=O)O` [AMPH, Amphotericin B], the MIC with A. fumigatus ATCC 26430 [1] lay within 0.5 to 1.0 µg/mL; in the assay with A. fumigatus ATCC 26430 [2], 0.5 to 2.0 µg/mL.

For orientation: MIC means the least concentration at which growth counts as inhibited.
